From the supplement of paper PMC10849652
The other results are listed elsewhere or left out.

The chains behind the UniProt entries cited, without tags or fusion partners. Where a name states a change or a piece, a line headed by the entry shows the natural chain unless it says otherwise.
UniProt O75460: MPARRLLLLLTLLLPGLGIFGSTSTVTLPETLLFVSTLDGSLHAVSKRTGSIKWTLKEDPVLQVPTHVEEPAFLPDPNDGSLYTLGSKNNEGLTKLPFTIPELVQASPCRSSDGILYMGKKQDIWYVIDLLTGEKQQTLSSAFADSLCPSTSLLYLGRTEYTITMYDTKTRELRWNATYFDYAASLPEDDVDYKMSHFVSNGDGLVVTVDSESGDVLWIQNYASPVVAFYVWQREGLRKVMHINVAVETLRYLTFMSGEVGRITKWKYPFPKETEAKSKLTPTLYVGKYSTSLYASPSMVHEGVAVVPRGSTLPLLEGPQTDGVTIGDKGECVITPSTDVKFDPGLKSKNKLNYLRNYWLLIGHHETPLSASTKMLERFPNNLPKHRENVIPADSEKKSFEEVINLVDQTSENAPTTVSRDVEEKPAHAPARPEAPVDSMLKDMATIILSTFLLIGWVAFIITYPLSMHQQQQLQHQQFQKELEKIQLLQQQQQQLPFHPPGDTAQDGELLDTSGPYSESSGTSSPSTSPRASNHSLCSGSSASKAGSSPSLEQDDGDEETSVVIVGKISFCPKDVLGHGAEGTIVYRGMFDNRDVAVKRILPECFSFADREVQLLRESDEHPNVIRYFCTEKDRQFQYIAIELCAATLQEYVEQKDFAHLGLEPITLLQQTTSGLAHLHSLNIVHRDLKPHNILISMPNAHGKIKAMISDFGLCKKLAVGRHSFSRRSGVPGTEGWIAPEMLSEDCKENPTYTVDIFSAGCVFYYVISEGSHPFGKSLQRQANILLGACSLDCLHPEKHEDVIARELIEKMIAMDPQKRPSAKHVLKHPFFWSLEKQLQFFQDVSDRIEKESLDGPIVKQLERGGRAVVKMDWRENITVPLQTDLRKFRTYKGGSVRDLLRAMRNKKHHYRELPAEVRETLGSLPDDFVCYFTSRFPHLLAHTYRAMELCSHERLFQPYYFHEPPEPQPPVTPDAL
UniProt Q9H8W3: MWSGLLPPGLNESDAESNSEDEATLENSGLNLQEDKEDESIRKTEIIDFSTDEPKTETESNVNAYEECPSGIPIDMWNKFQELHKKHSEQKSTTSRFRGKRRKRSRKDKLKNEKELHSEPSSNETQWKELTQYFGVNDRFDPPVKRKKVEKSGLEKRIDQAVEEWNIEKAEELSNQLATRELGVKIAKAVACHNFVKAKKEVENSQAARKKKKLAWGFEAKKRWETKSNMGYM
UniProt Q9NVM1: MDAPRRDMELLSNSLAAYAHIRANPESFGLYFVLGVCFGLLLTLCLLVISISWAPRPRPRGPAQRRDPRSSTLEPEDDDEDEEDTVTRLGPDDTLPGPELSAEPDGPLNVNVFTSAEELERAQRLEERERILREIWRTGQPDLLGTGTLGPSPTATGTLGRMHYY
UniProt Q9BVV8: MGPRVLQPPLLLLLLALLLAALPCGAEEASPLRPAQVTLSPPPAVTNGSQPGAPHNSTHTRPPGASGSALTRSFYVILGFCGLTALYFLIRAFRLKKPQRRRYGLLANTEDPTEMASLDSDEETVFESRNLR
UniProt Q9Y421: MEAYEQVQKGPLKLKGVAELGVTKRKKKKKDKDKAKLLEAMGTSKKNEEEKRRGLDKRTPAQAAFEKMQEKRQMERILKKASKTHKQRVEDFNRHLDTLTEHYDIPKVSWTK
UniProt Q9NYK6: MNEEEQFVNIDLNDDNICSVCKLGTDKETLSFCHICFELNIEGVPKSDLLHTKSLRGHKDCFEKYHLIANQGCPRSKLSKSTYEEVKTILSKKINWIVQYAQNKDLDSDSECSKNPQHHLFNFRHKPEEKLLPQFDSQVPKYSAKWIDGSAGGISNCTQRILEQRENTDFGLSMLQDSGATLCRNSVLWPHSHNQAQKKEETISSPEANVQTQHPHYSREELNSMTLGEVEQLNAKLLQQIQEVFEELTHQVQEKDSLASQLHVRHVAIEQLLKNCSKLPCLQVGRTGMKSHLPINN
UniProt Q14264: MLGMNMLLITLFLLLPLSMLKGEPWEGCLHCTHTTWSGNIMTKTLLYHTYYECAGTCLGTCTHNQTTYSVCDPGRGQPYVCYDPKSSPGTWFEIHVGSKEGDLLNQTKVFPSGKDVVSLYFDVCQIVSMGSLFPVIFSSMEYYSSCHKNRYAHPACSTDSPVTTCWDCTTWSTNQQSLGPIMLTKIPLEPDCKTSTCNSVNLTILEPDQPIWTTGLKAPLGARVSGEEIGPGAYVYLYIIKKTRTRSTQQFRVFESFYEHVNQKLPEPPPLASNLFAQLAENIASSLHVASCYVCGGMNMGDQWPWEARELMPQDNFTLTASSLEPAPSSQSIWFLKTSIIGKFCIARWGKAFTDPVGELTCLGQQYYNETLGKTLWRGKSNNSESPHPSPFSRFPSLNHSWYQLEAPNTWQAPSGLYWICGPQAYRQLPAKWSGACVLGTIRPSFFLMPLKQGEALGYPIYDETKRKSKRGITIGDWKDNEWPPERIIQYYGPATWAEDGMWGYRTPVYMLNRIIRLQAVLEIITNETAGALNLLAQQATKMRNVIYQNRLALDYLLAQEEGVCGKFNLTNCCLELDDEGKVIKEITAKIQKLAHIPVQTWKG
EXOC3L2, A0A1C7CYX0, UniProt A0A1C7CYX0, whole entry, looked up: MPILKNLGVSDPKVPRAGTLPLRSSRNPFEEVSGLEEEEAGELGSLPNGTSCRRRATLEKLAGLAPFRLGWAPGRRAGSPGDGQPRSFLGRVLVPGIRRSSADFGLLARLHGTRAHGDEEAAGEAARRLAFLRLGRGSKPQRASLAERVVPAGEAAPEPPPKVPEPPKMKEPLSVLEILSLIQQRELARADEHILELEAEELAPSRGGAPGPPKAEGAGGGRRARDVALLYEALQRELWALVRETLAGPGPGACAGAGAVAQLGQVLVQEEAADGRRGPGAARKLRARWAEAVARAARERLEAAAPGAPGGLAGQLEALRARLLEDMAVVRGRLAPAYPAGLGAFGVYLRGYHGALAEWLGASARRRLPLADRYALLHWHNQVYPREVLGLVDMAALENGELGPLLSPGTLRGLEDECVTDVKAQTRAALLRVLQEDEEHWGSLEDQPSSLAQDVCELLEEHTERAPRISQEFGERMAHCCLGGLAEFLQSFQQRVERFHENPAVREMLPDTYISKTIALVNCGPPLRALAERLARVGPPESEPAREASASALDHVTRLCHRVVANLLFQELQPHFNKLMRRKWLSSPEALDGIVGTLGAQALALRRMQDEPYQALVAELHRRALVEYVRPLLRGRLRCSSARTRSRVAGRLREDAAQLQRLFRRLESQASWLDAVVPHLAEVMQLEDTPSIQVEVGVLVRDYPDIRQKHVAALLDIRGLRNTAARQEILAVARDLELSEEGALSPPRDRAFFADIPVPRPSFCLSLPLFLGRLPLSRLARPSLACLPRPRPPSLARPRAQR
UniProt P41161: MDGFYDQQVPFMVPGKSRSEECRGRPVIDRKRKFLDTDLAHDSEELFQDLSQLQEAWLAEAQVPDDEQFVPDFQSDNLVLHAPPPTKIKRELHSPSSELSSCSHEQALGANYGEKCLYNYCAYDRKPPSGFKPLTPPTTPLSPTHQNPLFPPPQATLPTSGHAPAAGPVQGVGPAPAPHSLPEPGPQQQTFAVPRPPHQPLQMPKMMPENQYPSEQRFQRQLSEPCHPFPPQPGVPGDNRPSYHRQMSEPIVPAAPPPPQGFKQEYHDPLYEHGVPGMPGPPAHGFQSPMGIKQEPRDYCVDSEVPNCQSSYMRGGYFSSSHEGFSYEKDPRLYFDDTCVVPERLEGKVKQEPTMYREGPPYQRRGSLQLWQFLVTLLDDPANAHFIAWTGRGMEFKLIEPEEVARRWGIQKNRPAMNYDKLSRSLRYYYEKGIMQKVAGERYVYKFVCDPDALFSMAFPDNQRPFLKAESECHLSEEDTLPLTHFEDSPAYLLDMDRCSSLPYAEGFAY
UniProt P50549: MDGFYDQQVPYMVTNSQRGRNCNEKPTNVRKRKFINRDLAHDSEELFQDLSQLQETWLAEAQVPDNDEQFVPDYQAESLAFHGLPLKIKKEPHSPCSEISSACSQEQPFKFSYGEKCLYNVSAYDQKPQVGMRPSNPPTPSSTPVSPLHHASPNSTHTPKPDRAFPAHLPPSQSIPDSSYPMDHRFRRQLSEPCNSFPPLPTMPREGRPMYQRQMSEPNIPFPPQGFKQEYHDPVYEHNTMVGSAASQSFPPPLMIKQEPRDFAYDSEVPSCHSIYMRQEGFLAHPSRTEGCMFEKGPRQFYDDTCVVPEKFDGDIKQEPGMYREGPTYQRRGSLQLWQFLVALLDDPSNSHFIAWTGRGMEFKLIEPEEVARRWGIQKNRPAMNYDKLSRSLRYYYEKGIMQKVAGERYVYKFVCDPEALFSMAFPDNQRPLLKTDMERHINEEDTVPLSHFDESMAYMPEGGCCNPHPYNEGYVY
UniProt Q8N612: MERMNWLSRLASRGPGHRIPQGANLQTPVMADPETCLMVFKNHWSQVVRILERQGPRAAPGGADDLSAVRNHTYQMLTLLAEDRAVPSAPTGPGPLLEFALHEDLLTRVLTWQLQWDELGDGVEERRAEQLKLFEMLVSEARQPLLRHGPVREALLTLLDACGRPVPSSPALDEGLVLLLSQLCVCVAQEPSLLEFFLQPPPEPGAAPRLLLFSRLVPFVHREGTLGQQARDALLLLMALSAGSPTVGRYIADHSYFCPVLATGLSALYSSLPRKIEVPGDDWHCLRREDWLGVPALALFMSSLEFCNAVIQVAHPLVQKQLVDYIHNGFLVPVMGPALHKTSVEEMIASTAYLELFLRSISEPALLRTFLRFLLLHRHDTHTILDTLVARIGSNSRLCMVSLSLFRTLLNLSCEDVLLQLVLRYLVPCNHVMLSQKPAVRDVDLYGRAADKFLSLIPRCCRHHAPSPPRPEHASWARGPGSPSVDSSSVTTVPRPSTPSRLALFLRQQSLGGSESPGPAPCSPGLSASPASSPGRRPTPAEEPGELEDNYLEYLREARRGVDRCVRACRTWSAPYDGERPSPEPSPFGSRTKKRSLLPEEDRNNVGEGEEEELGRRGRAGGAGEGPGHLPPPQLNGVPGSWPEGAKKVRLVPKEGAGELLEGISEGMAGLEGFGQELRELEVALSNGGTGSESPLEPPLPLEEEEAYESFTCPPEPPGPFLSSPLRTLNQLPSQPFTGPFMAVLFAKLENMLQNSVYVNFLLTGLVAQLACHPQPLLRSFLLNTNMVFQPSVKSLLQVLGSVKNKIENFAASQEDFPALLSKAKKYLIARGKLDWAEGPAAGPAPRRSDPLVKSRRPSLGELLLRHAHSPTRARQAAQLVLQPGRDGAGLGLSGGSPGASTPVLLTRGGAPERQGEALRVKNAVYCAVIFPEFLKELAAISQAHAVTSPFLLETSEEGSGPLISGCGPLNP
UniProt O95718: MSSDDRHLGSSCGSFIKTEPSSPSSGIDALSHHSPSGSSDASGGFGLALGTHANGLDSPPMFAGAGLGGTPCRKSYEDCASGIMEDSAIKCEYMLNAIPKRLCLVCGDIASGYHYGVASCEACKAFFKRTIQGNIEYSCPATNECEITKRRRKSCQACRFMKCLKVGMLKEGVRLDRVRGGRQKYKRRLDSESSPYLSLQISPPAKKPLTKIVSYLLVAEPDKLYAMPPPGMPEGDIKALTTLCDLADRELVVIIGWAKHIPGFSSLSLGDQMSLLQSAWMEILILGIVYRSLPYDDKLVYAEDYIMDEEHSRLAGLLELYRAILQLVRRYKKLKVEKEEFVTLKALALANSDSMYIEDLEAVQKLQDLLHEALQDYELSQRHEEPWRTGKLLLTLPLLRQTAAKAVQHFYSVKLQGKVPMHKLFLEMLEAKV
UniProt P34910: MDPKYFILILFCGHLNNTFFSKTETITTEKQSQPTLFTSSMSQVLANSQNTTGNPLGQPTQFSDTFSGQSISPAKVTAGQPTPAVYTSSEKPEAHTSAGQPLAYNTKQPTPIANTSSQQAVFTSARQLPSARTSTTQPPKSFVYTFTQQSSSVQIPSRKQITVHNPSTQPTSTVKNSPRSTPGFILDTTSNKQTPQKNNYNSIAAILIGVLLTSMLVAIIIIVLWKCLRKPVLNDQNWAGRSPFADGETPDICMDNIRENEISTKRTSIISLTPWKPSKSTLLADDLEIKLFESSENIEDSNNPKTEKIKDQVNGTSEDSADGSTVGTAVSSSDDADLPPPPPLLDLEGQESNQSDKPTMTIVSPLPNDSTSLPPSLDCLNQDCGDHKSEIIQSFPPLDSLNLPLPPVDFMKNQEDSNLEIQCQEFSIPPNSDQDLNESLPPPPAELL

Legend:
Experiment in all cases: log2 fold change, soluble protein after heating vs DMSO (PISA); higher = thermal stabilisation; K562 lysate, 10 uM; active = over 0.2 and 3.5 SD of the protein, either way, in both replicates (recomputed)
tozasertib = compound: Cc1cc(Nc2cc(N3CCN(C)CC3)nc(Sc3ccc(NC(=O)C4CC4)cc3)n2)n[nH]1 [tozasertib]
Method in brief: (§1)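 Dounce homogenisation of K562 pellets in PBS pH 7.4 with 1 mM MgCl2 produced a crude extract, used at 1 mg/mL protein. Exposure to 10 μM compound lasted 30 min, and aliquots were then heated for 3 min across 48°C-58°C, pooled and brought to 0.5% NP-40 at 4°C. The supernatant after 21,000xg for 90 min was quantified by TMTpro 16plex LC-MS/MS with channel sums equalised. Duplicate values are given as log-two fold change in thermal stability relative to solvent controls.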

[1] = compound: NC1(c2ccc(-c3nc4ccn5c(=O)[nH]nc5c4cc3-c3ccccc3)cc2)CCC1
Method in brief: as §1

crizotinib = compound: C[C@@H](Oc1cc(-c2cnn(C3CCNCC3)c2)cnc1N)c1c(Cl)ccc(F)c1Cl [crizotinib]
Method in brief: as §1

[2] = compound: C[C@H](C1=CC=C(C=C1)C(=O)NC2=C3C=CNC3=NC=C2)N
Method in brief: as §1

gandotinib = compound: Cc1cc(Nc2cc(CN3CCOCC3)c3nc(C)c(Cc4ccc(Cl)cc4F)n3n2)n[nH]1 [gandotinib]
Method in brief: as §1

doramapimod = compound: Cc1ccc(-n2nc(C(C)(C)C)cc2NC(=O)Nc2ccc(OCCN3CCOCC3)c3ccccc23)cc1 [doramapimod]
Method in brief: as §1

[3] = compound: Cc1cccc(CC(=O)N2CCc3c2ccc(-c2cn(C)c4ncnc(N)c24)c3F)n1
Method in brief: as §1

quisinostat = compound: Cn1cc(CNCC2CCN(c3ncc(C(=O)NO)cn3)CC2)c2ccccc21 [quisinostat]
Method in brief: as §1

[4] = compound: NC(=O)Nc1cc(-c2cccc(F)c2)sc1C(=O)N[C@H]1CCCNC1
Method in brief: as §1

lapatinib = compound: CS(=O)(=O)CCNCc1ccc(-c2ccc3ncnc(Nc4ccc(OCc5cccc(F)c5)c(Cl)c4)c3c2)o1 [lapatinib]
Method in brief: as §1

duvelisib = compound: C[C@H](Nc1ncnc2nc[nH]c12)c1cc2cccc(Cl)c2c(=O)n1-c1ccccc1 [duvelisib]
Method in brief: as §1

dasatinib = compound: Cc1nc(Nc2ncc(C(=O)Nc3c(C)cccc3Cl)s2)cc(N2CCN(CCO)CC2)n1 [dasatinib]
Method in brief: as §1

[5] = compound: Cn1cc(-c2ccc3c(c2)CCN3C(=O)Cc2cccc(C(F)(F)F)c2)c2c(N)ncnc21
Method in brief: as §1

[6] = compound: NC(=O)c1cnc(N[C@@H]2CCCC[C@@H]2N)nc1Nc1cccc(-n2nccn2)c1
Method in brief: as §1

nilotinib = compound: Cc1cn(-c2cc(NC(=O)c3ccc(C)c(Nc4nccc(-c5cccnc5)n4)c3)cc(C(F)(F)F)c2)cn1 [nilotinib]
Method in brief: as §1

[7] = compound: Cc1nc(Nc2n[nH]c3c2CN(C(=O)N[C@H](CN(C)C)c2ccccc2)C3(C)C)c2sccc2n1
Method in brief: as §1

[8] = compound: Cc1ncc(-c2ccnc(Nc3ccc(S(C)(=O)=O)cc3)n2)n1C(C)C
Method in brief: as §1

tipifarnib = compound: Cn1cncc1[C@@](N)(c1ccc(Cl)cc1)c1ccc2c(c1)c(-c1cccc(Cl)c1)cc(=O)n2C [tipifarnib]
Method in brief: as §1

pictilisib = compound: CS(=O)(=O)N1CCN(Cc2cc3nc(-c4cccc5[nH]ncc45)nc(N4CCOCC4)c3s2)CC1 [pictilisib]
Method in brief: as §1

bafetinib = compound: Cc1ccc(NC(=O)c2ccc(CN3CC[C@H](N(C)C)C3)c(C(F)(F)F)c2)cc1Nc1nccc(-c2cncnc2)n1 [bafetinib]
Method in brief: as §1

Measured: log2 fold change

ERN1 (UniProt O75460)
inactive: tozasertib 0.004 | [1] -0.073

FAM204A (UniProt Q9H8W3)
inactive: crizotinib -0.053 | [2] 0.412 | gandotinib 0.045 | doramapimod 0.154 | [3] -0.077 | quisinostat -0.129 | [4] 0.069 | [1] 0.098

FAM171A1 (UniProt Q5VUB5)
inactive: lapatinib -0.221 | duvelisib -0.006 | dasatinib -0.045 | [5] 0.018 | [6] -0.085 | [1] 0.302

Reprinted from above (2 entries):
ERN1 (UniProt O75460)
inactive: tozasertib 0.004 | [1] -0.073

FAM204A (UniProt Q9H8W3)
inactive: crizotinib -0.053 | [2] 0.412 | gandotinib 0.045 | doramapimod 0.154 | [3] -0.077 | quisinostat -0.129 | [4] 0.069 | [1] 0.098

Following part:

EVA1B (UniProt Q9NVM1)
inactive: crizotinib -0.023 | duvelisib 0.068 | doramapimod 0.01 | dasatinib 0.014 | [5] 0.239 | quisinostat -0.006 | [4] -0.015 | [1] -0.08

FAM174C (UniProt Q9BVV8)
inactive: lapatinib -0.142 | [2] -0.154 | gandotinib 0.286 | [3] 0.018 | nilotinib -0.349 | [7] 0.042 | [8] 0.376 | tipifarnib 0.14 | [6] -0.034 | [1] -0.276

EWSR1 (UniProt H7BY36)
inactive: pictilisib 0.071 | crizotinib -0.042 | [2] 0.07 | duvelisib -0.011 | gandotinib -0.167 | tozasertib 0.01 | doramapimod -0.066 | bafetinib 0.293 | [3] 0.019 | dasatinib -0.104 | [5] -0.025 | quisinostat 0.112 | [4] 0.118

FAM32A (UniProt Q9Y421)
inactive: pictilisib 0.021 | crizotinib 0.011 | [2] -0.049 | duvelisib -0.054 | gandotinib 0.012 | tozasertib -0.032 | doramapimod 0.078 | bafetinib -0.006 | [3] 0.042 | dasatinib -0.031 | [5] 0.038 | quisinostat -0.064 | [4] 0.002 | [1] -0.021

EURL (UniProt Q9NYK6)
inactive: lapatinib 0.172 | [2] 0.099 | duvelisib -0.062 | gandotinib 0.035 | [3] 0.014 | dasatinib 0.043 | [5] 0.032 | [6] 0.523 | [1] -0.305

ERV3-1 (UniProt Q14264)
inactive: crizotinib 0.156 | duvelisib -0.001 | tozasertib 0.115 | doramapimod -0.041 | dasatinib -0.096 | [5] 0.203 | quisinostat 0.109 | [4] 0.056 | [1] -0.03

EXOC3L2, A0A1C7CYX0
inactive: crizotinib 0.05 | [2] 0.125 | duvelisib 0.11 | gandotinib -0.071 | tozasertib 0.043 | doramapimod 0.007 | [3] 0.08 | dasatinib -0.04 | [5] 0.078 | quisinostat 0.11 | [4] -0.017 | [1] -0.029

ETV5 isoform 2 (UniProt P41161)
inactive: [2] -0.077 | gandotinib -0.02 | tozasertib -0.01 | [3] -0.031

ETV1 (UniProt P50549)
inactive: duvelisib 0.012 | nilotinib -0.171 | [7] -0.365 | dasatinib -0.12 | [8] -0.181 | [5] -0.109 | tipifarnib -0.018 | [1] -0.037

FAM160A2 isoform 2 (UniProt Q8N612)
inactive: pictilisib -0.114 | crizotinib -0.033 | [2] -0.152 | duvelisib 0.131 | gandotinib 0.095 | tozasertib 0.111 | doramapimod 0.038 | bafetinib -0.278 | [3] -0.07 | nilotinib -0.067 | [7] 0.01 | dasatinib 0.14 | [8] -0.135 | [5] 0.136 | quisinostat -0.031 | tipifarnib -0.156 | [4] 0.041 | [1] -0.049

ESRRB isoform 1 (UniProt O95718)
inactive: pictilisib 0.05 | [2] 0.438 | gandotinib -0.437 | bafetinib 0.028 | [3] -0.308 | [1] 0.182

EVI2B isoform 2 (UniProt P34910)
inactive: [2] 0.043 | gandotinib 0.097 | [3] -0.005
